# US4493830A, “Method for the treatment of idiopathic headache attacks, in particular migraine and cluster headache” (Istituto Farmacologico Serono of Rome, priority 1983, dated 1985)
# Part of at least one peptide drawing is inferred or uncertain, most often the ends.
# Experiments:
# [1] = system: idiopathic headache attacks; assay: Uncontrolled trials with fewer patients; format: in vivo
# cluster headache attacks = assay: Double-blind randomized trial of treatment of cluster headache attacks in hospitalized patients; format: in vivo
# Protocol: Six consenting patients, suffering from cluster headache, were hospitalized. Two presented with a chronic state (more than one year) while the other four were in an attack stage at the moment of entering hospital. The patients received no other pharmaceuticals during the four days prior to commencing the study.
# In each patient attacks lasted an average of 1-2 hours.
# At the beginning of the attack, 10 minutes after the onset of pain, the patients received one of the following treatments:
# 500 mcg Somatostatin in 50 ml physiological solution, i.v.;
# 1 ml physiological solution i.m.;
# 50 ml physiological solution i.v.;
# 250 mcg Ergotamine Tartrate in 1 ml physiological solution i.m.
# Duration of venous infusion was 20 minutes (50 drops per min.), and was started simultaneously with the i.m. injection. Treatments and patients were randomized and the trial was carried out in double blind.
# In total, 9 attacks were treated for each patient, who received treatments (a) (b) or (c) 3 times; in this way, each treatment was used 18 times.
# Pain intensity was ascertained every 10 minutes on a visible scale. Values were recorded on the ordinate against the time which was recorded on the abscissa.
# 3 parameters were used for statistical assessment; maximum intensity of pain expressed in arbitrary units; duration of pain expressed in minutes; area below the curve expressed in arbitrary units. During infusion with Somatostatin, blood pressure and pulse rates were recorded every 10 minutes for an hour.
# [2] = versus physiological solution, Somatostatin 500 mcg i.v. infusion or Ergotamine Tartrate 250 mcg i.m.
structure (smiles),measurement,setting,value
C[C@H](N)C(=O)NCC(=O)N[C@H]1CSSC[C@@H](C(=O)O)NC(=O)[C@H](CO)NC(=O)[C@H]([C@@H](C)O)NC(=O)[C@H](Cc2ccccc2)NC(=O)[C@H]([C@@H](C)O)NC(=O)[C@H](CCCCN)NC(=O)[C@H](Cc2c[nH]c3ccccc23)NC(=O)[C@H](Cc2ccccc2)NC(=O)[C@H](Cc2ccccc2)NC(=O)[C@H](CC(N)=O)NC(=O)[C@H](CCCCN)NC1=O [Somatostatin],Efficacy in uncontrolled trials,[1]; 100 mcg bolus i.v. injection,efficacious
same,Efficacy in uncontrolled trials,[1]; 250 mcg i.m.,efficacious
same,Efficacy in uncontrolled trials,[1]; 250 mcg s.c.,efficacious
same,Efficacy in uncontrolled trials,[1]; 500 mcg venous infusion,efficacious
same,Efficacy versus placebo in reducing pain during attacks of cluster headache,cluster headache attacks; 500 mcg i.v. infusion,significantly more efficacious than placebo
same,Reduction of pain duration as compared with placebo,cluster headache attacks; Somatostatin 500 mcg i.v. infusion or Ergotamine Tartrate 250 mcg i.m.,27%
same,Maximum pain intensity,"cluster headache attacks; Somatostatin 500 mcg i.v. infusion or Ergotamine Tartrate 250 mcg i.m., physiological solution 7.1±0.3",5.9±0.2 arbitrary units
same,Area under the pain curve,"cluster headache attacks; Somatostatin 500 mcg i.v. infusion or Ergotamine Tartrate 250 mcg i.m., physiological solution 43.8±6.2",29.3±3.4 arbitrary units
same,Activity compared with Ergotamine in reducing pain during attacks of cluster headache,cluster headache attacks; Somatostatin 500 mcg i.v. infusion vs Ergotamine Tartrate 250 mcg i.m.,"slightly less active, but not significantly so"
same,Duration of pain,"cluster headache attacks; cluster headache patients, Somatostatin 500 mcg i.v. infusion over 20 min or Ergotamine Tartrate 250 mcg i.m., 18 attacks per treatment, physiological solution 93±10",68 ± 7 min
same,Reduction of maximum pain intensity,cluster headache attacks; [2],17%
same,Reduction of the pain area,cluster headache attacks; [2],34%
